In article doi:10.1101/777128 one finds binding data, which are given here for three molecules.

By UniProt entry, the sequences of proteins in these tests, tags left out.
UniProt Q61025: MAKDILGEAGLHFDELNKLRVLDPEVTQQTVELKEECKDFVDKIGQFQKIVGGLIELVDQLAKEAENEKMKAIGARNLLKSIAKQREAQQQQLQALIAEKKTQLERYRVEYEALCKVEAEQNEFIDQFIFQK
UniProt P46937: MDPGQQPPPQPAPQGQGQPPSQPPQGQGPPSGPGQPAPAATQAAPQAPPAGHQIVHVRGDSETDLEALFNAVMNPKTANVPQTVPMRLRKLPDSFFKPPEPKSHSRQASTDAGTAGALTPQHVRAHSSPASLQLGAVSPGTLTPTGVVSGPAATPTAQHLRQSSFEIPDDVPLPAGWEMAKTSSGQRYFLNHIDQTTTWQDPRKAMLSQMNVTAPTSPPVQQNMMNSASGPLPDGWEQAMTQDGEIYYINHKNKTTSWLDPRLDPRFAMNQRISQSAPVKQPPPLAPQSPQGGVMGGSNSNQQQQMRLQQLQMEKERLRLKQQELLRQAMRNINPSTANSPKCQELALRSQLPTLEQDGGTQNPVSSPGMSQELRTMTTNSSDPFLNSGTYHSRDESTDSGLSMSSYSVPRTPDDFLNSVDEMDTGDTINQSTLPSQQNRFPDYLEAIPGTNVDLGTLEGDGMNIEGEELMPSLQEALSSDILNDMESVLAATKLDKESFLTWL

These are yes or no findings as the source states them, for the method shown. In cells and extracts the contact can be indirect. Some binding calls cover weakened binding; strength is not graded here. Tags and fused reporters may be left off the sequences shown.

The target in one experiment is T1, Flag-Amotl1 (UniProt Q9D4H4).
T1 sequence: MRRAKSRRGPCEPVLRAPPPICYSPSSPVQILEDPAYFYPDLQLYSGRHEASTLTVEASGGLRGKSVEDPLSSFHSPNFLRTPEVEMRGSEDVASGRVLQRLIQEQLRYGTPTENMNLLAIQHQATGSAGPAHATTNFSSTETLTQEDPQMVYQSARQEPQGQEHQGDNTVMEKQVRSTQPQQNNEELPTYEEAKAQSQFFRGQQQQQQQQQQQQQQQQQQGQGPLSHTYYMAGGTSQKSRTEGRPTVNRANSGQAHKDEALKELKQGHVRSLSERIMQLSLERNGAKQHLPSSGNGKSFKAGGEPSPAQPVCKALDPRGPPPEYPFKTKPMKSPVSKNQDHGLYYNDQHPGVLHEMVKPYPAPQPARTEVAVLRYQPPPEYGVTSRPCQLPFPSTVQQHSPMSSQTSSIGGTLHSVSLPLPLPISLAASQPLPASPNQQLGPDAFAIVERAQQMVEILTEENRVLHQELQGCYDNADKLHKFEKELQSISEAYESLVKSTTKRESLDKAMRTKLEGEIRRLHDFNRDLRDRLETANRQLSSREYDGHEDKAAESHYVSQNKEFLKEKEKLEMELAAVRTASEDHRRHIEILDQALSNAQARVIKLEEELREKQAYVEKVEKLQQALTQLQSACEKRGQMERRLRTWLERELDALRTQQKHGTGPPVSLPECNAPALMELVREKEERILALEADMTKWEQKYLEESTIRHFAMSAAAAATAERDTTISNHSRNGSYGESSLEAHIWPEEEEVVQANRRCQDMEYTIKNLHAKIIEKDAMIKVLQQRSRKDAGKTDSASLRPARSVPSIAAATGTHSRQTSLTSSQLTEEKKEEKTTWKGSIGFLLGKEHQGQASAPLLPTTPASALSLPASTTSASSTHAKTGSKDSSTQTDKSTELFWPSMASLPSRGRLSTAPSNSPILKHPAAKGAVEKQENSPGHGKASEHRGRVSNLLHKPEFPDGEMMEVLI
Briefly: co-IP.

The target of the next experiment is T2, IFT88-GFP (UniProt Q13099).
T2 sequence: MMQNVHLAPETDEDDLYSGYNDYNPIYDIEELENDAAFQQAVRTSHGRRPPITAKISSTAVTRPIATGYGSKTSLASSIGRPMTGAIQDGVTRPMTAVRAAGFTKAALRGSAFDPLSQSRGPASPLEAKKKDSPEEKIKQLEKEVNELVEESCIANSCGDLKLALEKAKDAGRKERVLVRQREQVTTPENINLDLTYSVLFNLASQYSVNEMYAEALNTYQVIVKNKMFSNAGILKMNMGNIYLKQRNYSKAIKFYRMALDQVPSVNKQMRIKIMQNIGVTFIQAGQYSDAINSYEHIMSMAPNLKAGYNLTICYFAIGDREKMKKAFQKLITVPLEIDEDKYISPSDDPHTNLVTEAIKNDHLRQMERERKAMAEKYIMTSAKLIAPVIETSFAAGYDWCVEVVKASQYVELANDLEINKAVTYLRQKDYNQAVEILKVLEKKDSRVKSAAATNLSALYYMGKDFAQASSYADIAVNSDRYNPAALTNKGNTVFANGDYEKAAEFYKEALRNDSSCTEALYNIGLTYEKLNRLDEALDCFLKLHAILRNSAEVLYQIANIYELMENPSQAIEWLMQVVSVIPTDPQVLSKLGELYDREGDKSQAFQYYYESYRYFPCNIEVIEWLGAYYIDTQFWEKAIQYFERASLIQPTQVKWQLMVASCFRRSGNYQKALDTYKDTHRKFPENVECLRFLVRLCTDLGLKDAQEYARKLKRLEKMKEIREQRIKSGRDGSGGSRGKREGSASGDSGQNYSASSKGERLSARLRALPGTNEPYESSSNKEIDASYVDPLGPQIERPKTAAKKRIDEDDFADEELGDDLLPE
The experiment can be described thus: co-IP.

Take IFT20-GFP (from UniProt Q61025 1-132): the binding result with Flag-Amotl1 is on record as “binds”.

As for “endogenous YAP1 (from UniProt P46937 1-504)”, the binding result with Flag-Amotl1 was “binds”.

B1: HA-Amotl1 (protein, UniProt Q9D4H4 1-968)
chain: MRRAKSRRGPCEPVLRAPPPICYSPSSPVQILEDPAYFYPDLQLYSGRHEASTLTVEASGGLRGKSVEDPLSSFHSPNFLRTPEVEMRGSEDVASGRVLQRLIQEQLRYGTPTENMNLLAIQHQATGSAGPAHATTNFSSTETLTQEDPQMVYQSARQEPQGQEHQGDNTVMEKQVRSTQPQQNNEELPTYEEAKAQSQFFRGQQQQQQQQQQQQQQQQQQGQGPLSHTYYMAGGTSQKSRTEGRPTVNRANSGQAHKDEALKELKQGHVRSLSERIMQLSLERNGAKQHLPSSGNGKSFKAGGEPSPAQPVCKALDPRGPPPEYPFKTKPMKSPVSKNQDHGLYYNDQHPGVLHEMVKPYPAPQPARTEVAVLRYQPPPEYGVTSRPCQLPFPSTVQQHSPMSSQTSSIGGTLHSVSLPLPLPISLAASQPLPASPNQQLGPDAFAIVERAQQMVEILTEENRVLHQELQGCYDNADKLHKFEKELQSISEAYESLVKSTTKRESLDKAMRTKLEGEIRRLHDFNRDLRDRLETANRQLSSREYDGHEDKAAESHYVSQNKEFLKEKEKLEMELAAVRTASEDHRRHIEILDQALSNAQARVIKLEEELREKQAYVEKVEKLQQALTQLQSACEKRGQMERRLRTWLERELDALRTQQKHGTGPPVSLPECNAPALMELVREKEERILALEADMTKWEQKYLEESTIRHFAMSAAAAATAERDTTISNHSRNGSYGESSLEAHIWPEEEEVVQANRRCQDMEYTIKNLHAKIIEKDAMIKVLQQRSRKDAGKTDSASLRPARSVPSIAAATGTHSRQTSLTSSQLTEEKKEEKTTWKGSIGFLLGKEHQGQASAPLLPTTPASALSLPASTTSASSTHAKTGSKDSSTQTDKSTELFWPSMASLPSRGRLSTAPSNSPILKHPAAKGAVEKQENSPGHGKASEHRGRVSNLLHKPEFPDGEMMEVLI
On to B1, for which the binding result in the experiment with IFT88-GFP is recorded as “binds”.
